Test results published in paper PMC4581690, “Targeting Lysine Deacetylases (KDACs) in Parasites” (PLoS Neglected Tropical Diseases, 2015).

What was measured:
Assay type in all cases: cell-based
T. brucei strain S427 = assay: HAT vt: Human African trypanosoma viability assay; conditions: 72 hour, resazurin, read-out: measured activity (IC50), HAT vt, TbbS427
L929 mouse fibroblast = assay: CYT vt: cytotoxicity viability assay; conditions: L929, read-out: measured activity (IC50), CYT vt, L929
[1] = tested on: L. donovani strain MHOM/SD/00/LS; assay: LEI axe: Leishmania axenic amastigote assay; conditions: 72 hour, axenic amastigotes, resazurin, read-out: measured activity (IC50), LEI axe, Ld1S

**Q.** Which results are given for `O=C(CCCCCCC(=O)Nc1ccccc1)NO` [GRM1, SAHA, reference compound]?
**A.** IC50 (T. brucei strain S427): 1810 nM; IC50 (L929 mouse fibroblast): 155 nM; IC50 [1]: > 5000 nM
